Experimental findings from patent US20100317723 are described below.

The chains behind the UniProt entries cited, without tags or fusion partners. Residues count along the entry.
UniProt P19338, 2-710: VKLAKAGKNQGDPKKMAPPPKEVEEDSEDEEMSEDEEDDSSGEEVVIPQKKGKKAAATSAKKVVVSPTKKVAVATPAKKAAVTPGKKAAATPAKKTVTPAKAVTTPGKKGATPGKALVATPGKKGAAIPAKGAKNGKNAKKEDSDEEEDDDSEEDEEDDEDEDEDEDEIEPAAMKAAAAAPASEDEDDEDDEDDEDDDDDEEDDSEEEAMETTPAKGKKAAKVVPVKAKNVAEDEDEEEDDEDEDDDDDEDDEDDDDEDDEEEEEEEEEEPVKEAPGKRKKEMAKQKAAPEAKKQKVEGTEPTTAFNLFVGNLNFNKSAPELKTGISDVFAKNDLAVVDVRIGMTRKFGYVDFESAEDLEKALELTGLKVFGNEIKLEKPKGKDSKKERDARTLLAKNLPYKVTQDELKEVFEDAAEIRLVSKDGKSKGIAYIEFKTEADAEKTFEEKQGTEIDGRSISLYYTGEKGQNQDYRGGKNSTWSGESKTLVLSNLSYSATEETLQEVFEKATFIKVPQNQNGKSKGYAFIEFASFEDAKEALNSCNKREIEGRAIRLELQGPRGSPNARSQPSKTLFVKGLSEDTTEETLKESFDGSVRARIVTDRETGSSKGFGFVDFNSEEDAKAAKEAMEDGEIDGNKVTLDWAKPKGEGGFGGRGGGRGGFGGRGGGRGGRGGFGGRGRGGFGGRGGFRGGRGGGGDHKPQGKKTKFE
UniProt P13383, whole entry: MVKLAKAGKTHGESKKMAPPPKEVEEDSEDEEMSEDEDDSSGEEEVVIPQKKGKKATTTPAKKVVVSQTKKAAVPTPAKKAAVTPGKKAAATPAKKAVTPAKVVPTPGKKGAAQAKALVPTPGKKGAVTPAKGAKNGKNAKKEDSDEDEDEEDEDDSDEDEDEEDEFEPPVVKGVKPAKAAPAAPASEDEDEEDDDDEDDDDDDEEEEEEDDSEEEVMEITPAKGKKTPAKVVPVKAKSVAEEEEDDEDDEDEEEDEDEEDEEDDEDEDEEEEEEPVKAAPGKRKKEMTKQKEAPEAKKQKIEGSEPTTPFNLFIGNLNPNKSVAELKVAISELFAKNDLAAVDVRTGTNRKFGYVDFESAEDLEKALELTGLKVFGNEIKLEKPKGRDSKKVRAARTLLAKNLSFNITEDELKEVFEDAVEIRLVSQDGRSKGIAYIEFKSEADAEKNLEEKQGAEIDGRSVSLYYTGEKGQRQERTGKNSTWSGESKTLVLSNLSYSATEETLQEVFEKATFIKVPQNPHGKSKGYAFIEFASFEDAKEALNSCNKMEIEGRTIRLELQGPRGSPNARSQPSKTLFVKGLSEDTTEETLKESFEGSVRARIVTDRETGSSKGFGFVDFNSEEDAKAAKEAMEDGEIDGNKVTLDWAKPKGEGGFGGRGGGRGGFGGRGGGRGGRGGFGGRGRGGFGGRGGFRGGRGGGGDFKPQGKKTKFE

Series [1] addresses Nucleolin (cell-surface, human cancer cell lines) (UniProt P19338). As to the kind of experiment: flow cytometry. The following applies: protein on the cell surface, label: 5'-Cy3, single-stranded DNA. (In flow cytometry, cells or beads pass a laser one at a time.)
In series [2] the target is Nucleolin (cell-surface, C6 rat glioma cells) (UniProt P13383). The series can be described thus: binding assay. Particulars: protein on the cell surface, protein details: endogenous on C6 cells (ATCC), label: 5'-Cy3, single-stranded DNA, variant of GRO29A (Cy3-1641-3).
The target in series [3] is Nucleolin (cell-surface, human cancer cell lines) (UniProt P19338). As to the kind of experiment: binding assay. The following applies: HeLa cells; no significant fluorescent signal; protein on the cell surface; label: 5'-Cy3; single-stranded DNA; variant of GRO29A (Cy3-1641-3).
For series [4] the target is unchanged. As to the kind of experiment: activity in cells. The following applies: NapdU at T12, T13; 4 uM, MDA-MB231 viability; higher inhibition than AS1411; protein on the cell surface; single-stranded DNA; variant of AS1411 (Cy3-1642-80).

For some assays here: At least one result comes from cells or an extract, where the contact may be indirect. For some assays here: A negative result means that nothing was seen under these conditions.

Regarding GGTGGTGGTGGTTGTGGTGGTGGTGG [1642-210], the binding result in series [1] (4-PBdU at T9, T12, T13, increased versus AS1411, similar to central double modification, variant of AS1411 (Cy3-1642-80)) is reported as “binds”.

For TTTGGTGGTGGTGGTTGTGGTGGTGGTGG [1642-70], in series [2] (NapdU at T1, T15, T16, C6 cell fluorescence, better than GRO29A), the binding result is reported as “binds”.

Take GGTGGTGGTGGTTGTGGTGGTGGTGG [1642-165]: in series [1] (NapdU at T9, T12, T13, increased versus AS1411, similar to central double modification, variant of AS1411 (Cy3-1642-80)), the binding result is “binds”. As to GGTGGTGGTGGTTGTGGTGGTGGTGG [1642-162], in series [1] (NapdU at T12, T13, T15, increased versus AS1411, similar to central double modification, variant of AS1411 (Cy3-1642-80)), the binding result is “binds”. For the sequence “TTTCCTCCTCCTCCTTCTCCTCCTCCTCC [CRO29A (Cy3-1641-8)]”, the binding result in series [3] is “no binding”; in series [2] (not clearly visualized in C6 cells by confocal, 20 nM, negative control) it was “no binding”. For the sequence GGTGGTGGTGGTTGTGGTGGTGGTGG [1642-212], the binding result in series [1] (4-PBdU at T3, T12, T13, increased versus AS1411, similar to central double modification, variant of AS1411 (Cy3-1642-80)) is “binds”. Take GGTGGTGGTGGTTGTGGTGGTGGTGG [1642-119]: the binding result in series [1] (BzdU at T9, T12, T13, increased versus AS1411, similar to central double modification, variant of AS1411 (Cy3-1642-80)) was “binds”. TTTGGTGGTGGTGGTTGTGGTGGTGGTGG [1642-73]: in series [2] (NapdU at T1, T2, T3, T15, T16, C6 cell fluorescence, better than GRO29A), the binding result is given as “binds”. On to GGTGGTGGTGGTTGTGGTGGTGGTGG [1642-114], for which the binding result in series [1] (BzdU at T12, T13, T24, increased versus AS1411, similar to central double modification, variant of AS1411 (Cy3-1642-80)) is recorded as “binds”.

For the sequence GGTGGTGGTGGTTGTGGTGGTGGTGG [1642-206], the binding result in series [1] (4-PBdU at T12, T13, increased versus AS1411, variant of AS1411 (Cy3-1642-80)) was “binds”. Regarding GGTGGTGGTGGTTGTGGTGGTGGTGG [1642-116], the binding result in series [1] (BzdU at T12, T13, T15, increased versus AS1411, similar to central double modification, variant of AS1411 (Cy3-1642-80)) is “binds”. For the sequence “GGTGGTGGTGGTTGTGGTGGTGGTGG [AS1411 (Cy3-1642-80)]”, the binding result in series [1] (human cancer cell lines, 100 pmol in 200 uL HBSS on ice, reference) was “binds”.

As to TTTGGTGGTGGTGGTTGTGGTGGTGGTGG [1642-71], the binding result in series [2] (NapdU at T2, T3, T15, T16, C6 cell fluorescence, better than GRO29A) was “binds”. In the case of GGTGGTGGTGGTTGTGGTGGTGGTGG [1642-132], in series [1] (NapdU at all T (3, 6, 9, 12, 13, 15, 18, 21, 24), increased versus AS1411 on various cancer cell lines, HBSS, ice, variant of AS1411 (Cy3-1642-80)), the binding result is given as “binds”. Take GGTGGTGGTGGTTGTGGTGGTGGTGG [1642-161]: the “functional effect of the aptamer” value in series [4] is “active”. In addition, in series [1] (NapdU at T12, T13, increased versus AS1411 on various cancer cell lines, HBSS, ice, variant of AS1411 (Cy3-1642-80)), the binding result was “binds”. GGTGGTGGTGGTTGTGGTGGTGGTGG [1642-177]: the binding result in series [1] (4-PBdU at all T (3, 6, 9, 12, 13, 15, 18, 21, 24), increased versus AS1411, variant of AS1411 (Cy3-1642-80)) is listed as “binds”. With GGTGGTGGTGGTTGTGGTGGTGGTGG [1642-121], the binding result in series [1] (BzdU at T3, T12, T13, increased versus AS1411, similar to central double modification, variant of AS1411 (Cy3-1642-80)) was “binds”. GGTGGTGGTGGTTGTGGTGGTGGTGG [1642-160]: the binding result in series [1] (NapdU at T12, T13, T24, increased versus AS1411, similar to central double modification, variant of AS1411 (Cy3-1642-80)) was “binds”.

As to GGTGGTGGTGGTTGTGGTGGTGGTGG [1642-207], the binding result in series [1] (4-PBdU at T12, T13, T15, increased versus AS1411, similar to central double modification, variant of AS1411 (Cy3-1642-80)) is recorded as “binds”. Consider GGTGGTGGTGGTTGTGGTGGTGGTGG [1642-167], for which the binding result in series [1] (NapdU at T3, T12, T13, increased versus AS1411, similar to central double modification, variant of AS1411 (Cy3-1642-80)) was “binds”. In the case of GGTGGTGGTGGTTGTGGTGGTGGTGG [1642-88], the binding result in series [1] (BzdU at all T (3, 6, 9, 12, 13, 15, 18, 21, 24), increased versus AS1411 on various cancer cell lines, HBSS, ice, variant of AS1411 (Cy3-1642-80)) is “binds”.

In the case of TTTGGTGGTGGTGGTTGTGGTGGTGGTGG [1642-72], the binding result in series [2] (NapdU at T1, T3, T15, T16, C6 cell fluorescence, better than GRO29A) is “binds”.

Turning to GGTGGTGGTGGTTGTGGTGGTGGTGG [1642-205], in series [1] (4-PBdU at T12, T13, T24, increased versus AS1411, similar to central double modification, variant of AS1411 (Cy3-1642-80)), the binding result is reported as “binds”. For the sequence GGTGGTGGTGGTTGTGGTGGTGGTGG [1642-115], in series [1] (BzdU at T12, T13, increased versus AS1411 on various cancer cell lines, HBSS, ice, variant of AS1411 (Cy3-1642-80)), the binding result is listed as “binds”.
